Some of the results follow. The main result of the screen is listed elsewhere. These columns were measured beside it and carry no call. The list favours compounds with an active or inconclusive main result. Potencies come from curve fits of mixed quality, noted in brackets.
Assay: IkB Signaling
Conditions: ABC-DLBCL IkBa-CBG/CBR dual luciferase ratio (green luciferase fused to IkBa over red control in OCI-Ly3 lymphoma cells), 4 h
Summary of the method: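 Luminescence ratio of IκBα-fused green versus native red beetle luciferase in OCI-Ly3 cells, 4 h post-doxycycline with compound; red signal alone, scaled from basal (0%) to zero light (-100%), flagged nonspecific or cytotoxic effects.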

[1] = measured here: control luc red channel unless noted
[2] = measured here: IkB-luc green channel
[3] = measured here: control luc red channel

Q: Which AC50 [1] does the source give for `CCCN1C[C@H](CSC)C[C@H]2c3cccc4[nH]cc(c34)C[C@@H]21` here?
A: 0.316 µM [rising, single point]

Q: Which AC50 [1] does the source give for `Cc1cc(=O)n2nc(N3CCC(C(=O)Nc4ccc(C(C)C)cc4)CC3)sc2n1` here?
A: 10 µM [falling, partial curve]

Q: For `Cc1nnc(Sc2nc(Sc3nnc(C)s3)nc(N3CCN(C)CC3)n2)s1`, which AC50 [2] is on record?
A: 3.16 µM [rising, full curve]

Q: And the AC50 [3]?
A: 12.6 µM [falling, partial curve]

Q: Which AC50 [1] does the source give for `COc1cccc(CNC(=O)CCS(=O)(=O)c2cc3c(cc2C)NC(=O)CO3)c1` here?
A: 15.8 µM [falling, partial curve]

Q: Which AC50 [1] does the source give for `CN(C)c1ccc(CNC(=O)CCCN2C(=O)CCn3nc(-c4cccn4C)cc32)cc1` here?
A: 15.8 µM [falling, partial curve]

Q: With `COc1cc(-c2nc3sccn3c2Nc2cccc(C)c2)ccc1O` as the compound, how does the AC50 [1] read?
A: 25.1 µM [falling, single point]

Q: With `Oc1ccccc1-c1nc(/C=C/c2ccccc2Cl)no1` as the compound, how does the AC50 [1] read?
A: 0.0398 µM [falling, full curve]

Q: For `COc1ccccc1OCCCn1c(C2CC(=O)N(c3ccccc3Cl)C2)nc2ccccc21` (configuration not stated), which AC50 [1] is on record?
A: 15.8 µM [falling, partial curve]

Q: For `COc1ccccc1C(=O)N1CCN(c2cccc(Cl)c2)CC1`, which AC50 [1] is on record?
A: 3.16 µM [rising, partial curve]

Q: For `COc1ccc(N2C(=O)CCSC23C(=O)N(Cc2ccc(F)cc2)c2ccccc23)cc1Cl` (configuration not stated), which AC50 [1] is on record?
A: 25.1 µM [falling, single point]

Q: Which AC50 [1] does the source give for `CCc1ccccc1NC(=O)Cn1c(=O)ccc2cc(S(=O)(=O)N3CCC(C)CC3)ccc21` here?
A: 31.6 µM [falling, partial curve]

Q: Which AC50 [1] does the source give for `Cc1cccc(N2CCN(S(=O)(=O)c3c(C)nc4scc(C)n4c3=O)CC2C)c1` (configuration not stated) here?
A: 20 µM [falling, partial curve]

Q: With `CC1CCN(C(=O)c2ccc(NC(=O)c3nsc4ccccc34)cc2)CC1` as the compound, how does the AC50 [1] read?
A: 0.398 µM [falling, full curve]

Q: Which AC50 [1] does the source give for `CCOC(=O)c1sc(NC(=O)c2nc3nc(C)cc(C(F)F)n3n2)c(C(=O)OC)c1C` here?
A: 5.01 µM [falling, partial curve]

Q: With `Cn1nc(C(=O)Nc2ccccc2C#N)c2c1-c1ccccc1SC2` as the compound, how does the AC50 [1] read?
A: 39.8 µM [falling, single point]

Q: With `C[C@@H]1C[C@@H]2[C@H]3CCC4=CC(=O)C=C[C@]4(C)[C@]3(F)[C@@H](O)C[C@@]2(C)[C@@]1(O)C(=O)CO` as the compound, how does the AC50 [2] read?
A: 0.00398 µM [rising, full curve]

Q: And the AC50 [3]?
A: 0.000794 µM [rising, full curve, poor fit]

Q: With `COc1cccc(-c2cc(C(=O)Nc3cccnc3Cl)no2)c1` as the compound, how does the AC50 [1] read?
A: 20 µM [falling, partial curve]

Q: For `COc1ccc(-c2nc3ccc(C(=O)NCc4ccc(C)cc4)cc3nc2-c2ccc(OC)cc2)cc1`, which AC50 [1] is on record?
A: 5.01 µM [falling, full curve, poor fit]

Q: Which AC50 [1] does the source give for `COc1ccc(Cl)cc1-n1c(CCC(=O)O)ccc1-c1ccc(C)cc1` here?
A: 15.8 µM [falling, partial curve]

Q: For `COc1ccc(Br)cc1CNC(=O)CCSCc1ccc(Cl)cc1`, which AC50 [1] is on record?
A: 25.1 µM [falling, single point]

Q: With `Cc1ccc(OCCn2c(COc3ccc(Cl)cc3)nc3ccccc32)cc1` as the compound, how does the AC50 [1] read?
A: 1.58 µM [falling, partial curve]

Q: With `COc1ccc(-c2noc(-c3ccccc3C(=O)NCc3ccco3)n2)cc1OC` as the compound, how does the AC50 [1] read?
A: 10 µM [falling, partial curve]

Q: Which AC50 [1] does the source give for `c1ccc(Cn2nnnc2C(c2cccs2)N2CCc3ccccc3C2)cc1` (configuration not stated) here?
A: 20 µM [falling, partial curve]

Q: Which AC50 [1] does the source give for `CC(C)Cn1c(SCc2cccc(F)c2)nc2ccsc2c1=O` here?
A: 39.8 µM [falling, single point]

Q: Which AC50 [2] does the source give for `CCOc1ccc(CNC(=O)c2cccc(Nc3nc4ccccc4n4nnnc34)c2)cc1OC` here?
A: 25.1 µM [rising, single point]

Q: What about the AC50 [3] of the same compound?
A: 3.16 µM [falling, partial curve]

Q: For `CSc1nc(N)nc(SCC(=O)c2ccccc2)c1C#N`, which AC50 [1] is on record?
A: 12.6 µM [falling, partial curve]

Q: With `CC(=O)c1cc2c(cc1N/C(=N/S(=O)(=O)c1ccc(C)cc1)c1ccc(Cl)cc1)OCO2` as the compound, how does the AC50 [1] read?
A: 0.794 µM [rising, full curve]

Q: With `COc1ccc(-c2cn3c(n2)sc2cc(C(=O)NCc4ccccc4)ccc23)cc1` as the compound, how does the AC50 [1] read?
A: 31.6 µM [falling, single point]

Q: Which AC50 [1] does the source give for `Cc1ccc(CNc2c(C)c(C)nc3nncn23)cc1` here?
A: 15.8 µM [falling, partial curve]

Q: Which AC50 [1] does the source give for `COc1ccc(OC)c(C2CC(=O)Nc3ccc4ccccc4c32)c1` (configuration not stated) here?
A: 39.8 µM [falling, single point]

Q: Which AC50 [1] does the source give for `CC1Cc2cc(S(=O)(=O)CCC(=O)Nc3ccc(OC(F)(F)F)cc3)ccc2N1C(=O)C1CC1` (configuration not stated) here?
A: 3.16 µM [falling, full curve]

Q: With `CCN(C(=O)CCS(=O)(=O)c1cc(Br)cc2c1N(C(=O)C1CC1)CC2)c1cccc(C)c1` as the compound, how does the AC50 [1] read?
A: 20 µM [falling, partial curve]

Q: Which AC50 [1] does the source give for `COc1ccc(Cc2nc3ccc(C(=O)NCCc4ccc(Cl)cc4)cc3o2)cc1` here?
A: 3.16 µM [falling, partial curve]

Q: For `Cc1ccc(C)c(C(=O)N2CCC(c3nc4c(nnn4Cc4ccccc4)c(=O)[nH]3)CC2)c1`, which AC50 [1] is on record?
A: 31.6 µM [falling, single point]

Q: For `CCOCCCn1c(SCC(=O)Nc2ccccc2OC)nc2c(oc3ccccc32)c1=O`, which AC50 [1] is on record?
A: 31.6 µM [falling, partial curve]

Q: With `CCOc1ccccc1N1CC(c2nc3ccccc3n2CCCCOc2ccccc2)CC1=O` (configuration not stated) as the compound, how does the AC50 [1] read?
A: 15.8 µM [falling, partial curve]

Q: For `CCOc1ccc(Nc2oc(/C=C/c3cc(OC)c(OC)c(OC)c3)nc2C#N)cc1`, which AC50 [1] is on record?
A: 5.01 µM [falling, single point]

Q: Which AC50 [1] does the source give for `CN(C)CCC(=O)c1ccc(Cl)cc1` here?
A: 25.1 µM [falling, partial curve]

Q: Which AC50 [1] does the source give for `COc1ccc(NC(=O)CN(C)S(=O)(=O)c2cnc[nH]2)cc1` here?
A: 0.631 µM [falling, partial curve]
